Data reported in patent US20080108565A1.
Substitutions are numbered along the chain they refer to. Results are given in words; binding and its absence hold for the method and conditions named. Some binding calls cover weakened binding; strength is not graded here.

The chains behind the UniProt entries cited, without tags or fusion partners. Where a name states a change or a piece, a line headed by the entry shows the natural chain unless it says otherwise. Residues count along the entry.
UniProt P14210, residues 32-728: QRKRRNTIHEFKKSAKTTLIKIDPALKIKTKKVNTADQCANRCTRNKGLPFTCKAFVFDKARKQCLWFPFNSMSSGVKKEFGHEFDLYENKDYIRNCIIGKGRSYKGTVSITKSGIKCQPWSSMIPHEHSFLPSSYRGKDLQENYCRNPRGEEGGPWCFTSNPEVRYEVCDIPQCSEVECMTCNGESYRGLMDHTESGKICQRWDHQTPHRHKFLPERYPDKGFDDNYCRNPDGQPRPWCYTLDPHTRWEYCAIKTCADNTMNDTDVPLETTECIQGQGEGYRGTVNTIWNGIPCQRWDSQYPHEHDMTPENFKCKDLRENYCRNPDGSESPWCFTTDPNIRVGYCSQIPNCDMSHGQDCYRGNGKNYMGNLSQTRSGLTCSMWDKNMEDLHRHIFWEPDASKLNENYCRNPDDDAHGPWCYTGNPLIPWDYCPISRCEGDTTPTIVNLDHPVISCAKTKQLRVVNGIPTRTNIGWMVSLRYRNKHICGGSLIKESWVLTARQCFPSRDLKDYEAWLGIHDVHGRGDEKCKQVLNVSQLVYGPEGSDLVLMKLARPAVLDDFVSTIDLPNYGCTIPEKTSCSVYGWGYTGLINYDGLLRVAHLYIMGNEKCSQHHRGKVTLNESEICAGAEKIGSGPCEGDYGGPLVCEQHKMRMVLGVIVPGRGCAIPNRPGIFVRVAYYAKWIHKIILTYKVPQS
UniProt Q08048, residues 33-728: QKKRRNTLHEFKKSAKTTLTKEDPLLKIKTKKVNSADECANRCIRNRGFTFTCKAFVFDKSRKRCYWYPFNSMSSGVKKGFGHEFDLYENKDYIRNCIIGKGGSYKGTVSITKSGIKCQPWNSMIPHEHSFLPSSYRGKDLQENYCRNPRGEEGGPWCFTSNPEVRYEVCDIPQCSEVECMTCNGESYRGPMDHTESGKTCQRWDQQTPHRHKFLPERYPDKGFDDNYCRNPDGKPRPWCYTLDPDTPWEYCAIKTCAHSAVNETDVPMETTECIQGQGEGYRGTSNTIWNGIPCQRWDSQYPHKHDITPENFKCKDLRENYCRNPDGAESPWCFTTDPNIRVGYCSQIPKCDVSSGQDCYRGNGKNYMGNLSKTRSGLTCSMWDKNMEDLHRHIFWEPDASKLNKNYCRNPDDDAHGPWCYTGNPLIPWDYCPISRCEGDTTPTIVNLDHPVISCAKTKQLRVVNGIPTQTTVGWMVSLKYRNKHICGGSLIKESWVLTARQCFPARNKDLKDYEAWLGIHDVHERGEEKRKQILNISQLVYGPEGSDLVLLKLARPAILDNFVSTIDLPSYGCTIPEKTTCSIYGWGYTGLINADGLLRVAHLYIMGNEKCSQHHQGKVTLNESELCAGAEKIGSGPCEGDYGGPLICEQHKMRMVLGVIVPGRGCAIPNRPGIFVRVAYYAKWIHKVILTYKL

B1: anti-hHGF monoclonal antibody 2F8 (antibody, mouse IgG1, kappa, V domains shown)
VH: QVQLKQSGAELVRPGTSVKMSCKASGYTFTTYYIHWVNQRPGQGLEWIGKIGPGSGSTYYNEMFKDKATLTVDTSSSTAYMQLSSLTSDDSAVYFCARRGLGRGFDYWGQGTTLTVSS
VL: DIVLTQSPASLAVSLGQRATISCKASQSVDYDGNSYINWYQQKPGQPPKVLIYVASNLESGIPARFSGSGSGTDFTLNIHPVEEEDAATYYCQQSIEDPPTFGAGTKLELKR
B2: anti-hHGF monoclonal antibody 3B6 (antibody, mouse IgG1, kappa, V domains shown)
VH: QVQLQQSGAELVRPGSSVKISCKASGYVFSSYWMNWVKQRPGQGLEWIGQIYPGDGDSNYNGNFKGKATLTADKSSSTAYMQLSSLTSEDSAVYFCASQLGLRENYFDYWGQGTTLTVSS
VL: DIKMTQSPSSMYASLGERVTITCKASQDIKSYLSWFQQKPGKSPKTLIYRVNRLVDGVPSRFSGSGSGQDSSLTITSLENEDMGIYYCLQYDEFPFTFGGGTKLEIKR
B3: anti-hHGF monoclonal antibody 1F3 (antibody, mouse IgG1, kappa, V domains shown)
VH: EVQLVESGGGLVQSGGSLKLSCAASGFTFSNYFMSWVRQTPEKRLEWVAYISSGGGSTYYPDSVKGRFTISRDNAKNTLYLQMSSLKSEDTAMYYCVRQGDGYYGDYAMDYWGQGTSVTVSS
VL: DIQMTQSPASLSVSVGETVTITCRASENIYSNLAWYQQKQGKSPQLLVYDATHLPDGVPSRFSGSGSGTQFSLKINSLQSEDFGSYYCQHFWGTPYTFGGGTRLEIKR
B4: anti-hHGF monoclonal antibody 1A3 (antibody, mouse IgG1, kappa, V domains shown)
VH: B3 VH with S14P, G26E, F33Y, E46Q, S53P, T58S, D62A, V97A
VL: B3 VL with D50A, H53N, P55A, S85T, R103K
B5: anti-hHGF monoclonal antibody 1D3 (antibody, mouse IgG1, kappa, V domains shown)
VH: B3 VH with S14P, N31D, F33Y, M93I, T119I
VL: B3 VL with A25T, V48I, D50A, H53N, P55A, K74R, S85R, R103K
B6: HE2B8-1 (antibody, human IgG1, kappa, V domains shown)
VH: QVQLVQPGAEVVKPGTSVKLSCKASGYTFTTYWMHWVNQAPGQGLEWIGEINPTNGHTNYNEKFKGKATLTVDKSTSTAYMELSSLRSEDTAVYYCARNYVGSIFDYWGQGTLLTVSS
VL: DIVMTQSPDSMAMSVGERVTLNCKASENVVSYVSWYQQKPGQSPKLLIYGASNRNTGVPDRFSGSGSATDFTLTISSVQAEDVADYHCGQSYNYPYTFGQGTKLEIKR
B7: HE2B8-4 (antibody, human IgG1, kappa, V domains shown)
VH: B6 VH with V12K, N38R, E62Q, K65Q, K67R
VL: B6 VL with M11L, V15L, N55E, T56S
B8: HE2B8-2 (antibody, human IgG1, kappa, V domains shown)
VH: B6 VH
VL: B6 VL with M11L, V15L, N55E, T56S
B9: HE2B8-3 (antibody, human IgG1, kappa, V domains shown)
VH: B6 VH with V12K, N38R, E62Q, K65Q, K67R
VL: B6 VL

Target: recombinant human HGF of Example 3 (column 'human HGF' of Table 3) (human) (UniProt P14210)
Experiment: SPR, immobilized antibody

binding, binds:
B1
B2
B3
B4
B5

Target: mouse-human-mouse chimeric HGF protein containing the human V495-L585 HGF sequence (mouse-human-mouse chimera) (UniProt Q08048)
Experiment: SPR, immobilized antibody

binding, binds:
B6
B7
B8
B9
B3
B5

Target: recombinant mouse HGF (R&D Systems) (mouse) (UniProt Q08048)
Experiment: SPR, immobilized antibody

binding, binds:
B1
B3

Target: reduced recombinant hHGF (human) (UniProt P14210)
Experiment: immunoblot, reduced rhHGF, antibody 5 µg/mL

binding, binds:
B1
B2
B3
B4
B5

Target: reduced recombinant hHGF (human) (UniProt P14210)
Experiment: immunoblot, reduced rhHGF

binding, binds:
B1
B2
B3
B4
B5

Target: recombinant human HGF of Example 3 (column 'human HGF' of Table 3) (human) (UniProt P14210)
Experiment: SPR, immobilized antibody, yes/no

binding, binds:
B1
B2
B3
B4
B5

Target: mouse-human-mouse chimeric HGF protein containing the human V495-L585 HGF sequence (mouse-human-mouse chimera) (UniProt Q08048)
Experiment: SPR, immobilized antibody, yes/no

binding, binds:
B6
B7
B8
B9
B3
B5

Target: recombinant mouse HGF (R&D Systems) (mouse) (UniProt Q08048)
Experiment: SPR, immobilized antibody, yes/no

binding, binds:
B1
B3
